We go through nine molecules from PMC12574921.

Protein sequences, listed by entry. Tags and fused reporters are not part of them. Lines headed by an entry give the natural chain unless they say otherwise; changes in a name come on top.
UniProt Q9VP77: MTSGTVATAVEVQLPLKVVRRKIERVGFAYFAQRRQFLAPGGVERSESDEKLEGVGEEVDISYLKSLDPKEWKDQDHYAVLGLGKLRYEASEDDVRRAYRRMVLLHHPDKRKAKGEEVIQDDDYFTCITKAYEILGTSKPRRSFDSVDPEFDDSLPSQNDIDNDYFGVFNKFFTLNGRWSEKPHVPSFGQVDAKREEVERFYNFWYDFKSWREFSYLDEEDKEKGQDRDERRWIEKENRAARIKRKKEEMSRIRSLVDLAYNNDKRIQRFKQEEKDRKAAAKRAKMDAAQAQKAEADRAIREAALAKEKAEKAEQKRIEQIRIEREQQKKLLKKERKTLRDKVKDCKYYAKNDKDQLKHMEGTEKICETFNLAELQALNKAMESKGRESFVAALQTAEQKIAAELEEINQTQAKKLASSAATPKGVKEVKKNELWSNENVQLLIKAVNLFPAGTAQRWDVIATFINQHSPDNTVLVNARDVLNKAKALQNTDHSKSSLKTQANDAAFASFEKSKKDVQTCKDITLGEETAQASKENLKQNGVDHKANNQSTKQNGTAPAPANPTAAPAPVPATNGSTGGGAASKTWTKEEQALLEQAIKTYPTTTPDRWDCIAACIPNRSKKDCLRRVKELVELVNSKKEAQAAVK
UniProt P51114: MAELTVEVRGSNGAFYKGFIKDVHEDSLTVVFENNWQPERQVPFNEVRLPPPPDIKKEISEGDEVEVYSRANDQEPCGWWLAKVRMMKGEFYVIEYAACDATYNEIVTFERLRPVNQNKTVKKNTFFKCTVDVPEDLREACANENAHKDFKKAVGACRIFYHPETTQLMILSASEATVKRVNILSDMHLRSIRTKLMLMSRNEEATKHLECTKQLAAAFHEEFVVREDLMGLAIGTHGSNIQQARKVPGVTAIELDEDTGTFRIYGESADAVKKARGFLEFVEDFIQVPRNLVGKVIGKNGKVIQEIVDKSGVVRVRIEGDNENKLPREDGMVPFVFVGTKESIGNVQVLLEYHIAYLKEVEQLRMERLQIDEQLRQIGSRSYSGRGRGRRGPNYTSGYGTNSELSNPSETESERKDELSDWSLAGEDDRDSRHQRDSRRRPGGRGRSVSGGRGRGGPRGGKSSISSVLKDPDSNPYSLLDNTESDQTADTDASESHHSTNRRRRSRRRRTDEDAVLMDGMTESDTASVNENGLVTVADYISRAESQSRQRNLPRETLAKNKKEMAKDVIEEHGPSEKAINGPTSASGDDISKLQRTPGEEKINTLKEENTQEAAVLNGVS
UniProt Q9H7E2: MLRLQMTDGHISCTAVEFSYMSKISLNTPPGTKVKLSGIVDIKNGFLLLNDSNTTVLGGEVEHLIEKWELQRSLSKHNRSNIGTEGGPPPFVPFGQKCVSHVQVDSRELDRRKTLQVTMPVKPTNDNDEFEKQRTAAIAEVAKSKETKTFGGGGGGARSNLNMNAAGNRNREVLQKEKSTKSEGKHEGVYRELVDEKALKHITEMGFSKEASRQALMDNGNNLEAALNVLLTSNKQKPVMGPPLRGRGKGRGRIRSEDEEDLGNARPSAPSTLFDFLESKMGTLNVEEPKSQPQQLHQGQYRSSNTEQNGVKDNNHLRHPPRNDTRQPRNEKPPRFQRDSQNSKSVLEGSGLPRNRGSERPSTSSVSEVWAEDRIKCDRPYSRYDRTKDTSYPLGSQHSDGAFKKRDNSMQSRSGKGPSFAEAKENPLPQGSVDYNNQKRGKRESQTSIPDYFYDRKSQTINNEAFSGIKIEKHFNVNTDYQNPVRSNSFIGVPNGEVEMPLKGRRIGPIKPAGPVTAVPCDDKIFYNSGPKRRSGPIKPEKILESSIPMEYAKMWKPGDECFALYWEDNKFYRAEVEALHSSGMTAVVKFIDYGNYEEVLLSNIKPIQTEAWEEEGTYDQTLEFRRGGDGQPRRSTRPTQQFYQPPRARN
UniProt P17844: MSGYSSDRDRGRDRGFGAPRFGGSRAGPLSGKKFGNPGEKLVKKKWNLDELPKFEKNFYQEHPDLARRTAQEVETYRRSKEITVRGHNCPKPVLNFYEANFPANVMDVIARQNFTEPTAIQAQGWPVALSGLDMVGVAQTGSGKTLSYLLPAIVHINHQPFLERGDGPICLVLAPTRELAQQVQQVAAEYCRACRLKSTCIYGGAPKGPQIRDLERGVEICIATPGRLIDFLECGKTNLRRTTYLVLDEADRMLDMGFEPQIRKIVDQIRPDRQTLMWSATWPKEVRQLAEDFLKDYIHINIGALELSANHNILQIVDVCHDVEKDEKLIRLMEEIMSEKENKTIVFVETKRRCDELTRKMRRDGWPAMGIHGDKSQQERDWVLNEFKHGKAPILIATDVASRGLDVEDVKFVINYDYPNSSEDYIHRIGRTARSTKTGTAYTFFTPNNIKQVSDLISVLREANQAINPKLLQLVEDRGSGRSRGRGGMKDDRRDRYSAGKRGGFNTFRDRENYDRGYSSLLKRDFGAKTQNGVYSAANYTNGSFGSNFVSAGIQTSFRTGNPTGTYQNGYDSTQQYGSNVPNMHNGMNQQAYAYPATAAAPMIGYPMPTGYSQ
UniProt P51116: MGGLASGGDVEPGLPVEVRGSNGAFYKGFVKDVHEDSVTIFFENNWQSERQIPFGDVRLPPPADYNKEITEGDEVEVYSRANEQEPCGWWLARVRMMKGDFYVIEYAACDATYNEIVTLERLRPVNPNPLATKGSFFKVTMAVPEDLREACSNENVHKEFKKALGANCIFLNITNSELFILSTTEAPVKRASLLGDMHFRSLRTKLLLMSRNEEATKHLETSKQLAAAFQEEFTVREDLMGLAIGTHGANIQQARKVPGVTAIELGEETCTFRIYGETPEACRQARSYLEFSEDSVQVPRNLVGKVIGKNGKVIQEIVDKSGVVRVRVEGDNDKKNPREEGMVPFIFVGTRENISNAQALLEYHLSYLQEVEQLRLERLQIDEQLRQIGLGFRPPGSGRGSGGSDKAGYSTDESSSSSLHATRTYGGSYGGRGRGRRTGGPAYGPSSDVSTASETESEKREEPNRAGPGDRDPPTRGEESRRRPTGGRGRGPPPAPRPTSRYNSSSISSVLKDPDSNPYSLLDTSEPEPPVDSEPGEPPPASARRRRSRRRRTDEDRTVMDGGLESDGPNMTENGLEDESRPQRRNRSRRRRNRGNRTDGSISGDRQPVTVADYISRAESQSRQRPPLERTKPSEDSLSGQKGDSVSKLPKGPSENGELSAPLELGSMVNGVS
UniProt Q9NR30: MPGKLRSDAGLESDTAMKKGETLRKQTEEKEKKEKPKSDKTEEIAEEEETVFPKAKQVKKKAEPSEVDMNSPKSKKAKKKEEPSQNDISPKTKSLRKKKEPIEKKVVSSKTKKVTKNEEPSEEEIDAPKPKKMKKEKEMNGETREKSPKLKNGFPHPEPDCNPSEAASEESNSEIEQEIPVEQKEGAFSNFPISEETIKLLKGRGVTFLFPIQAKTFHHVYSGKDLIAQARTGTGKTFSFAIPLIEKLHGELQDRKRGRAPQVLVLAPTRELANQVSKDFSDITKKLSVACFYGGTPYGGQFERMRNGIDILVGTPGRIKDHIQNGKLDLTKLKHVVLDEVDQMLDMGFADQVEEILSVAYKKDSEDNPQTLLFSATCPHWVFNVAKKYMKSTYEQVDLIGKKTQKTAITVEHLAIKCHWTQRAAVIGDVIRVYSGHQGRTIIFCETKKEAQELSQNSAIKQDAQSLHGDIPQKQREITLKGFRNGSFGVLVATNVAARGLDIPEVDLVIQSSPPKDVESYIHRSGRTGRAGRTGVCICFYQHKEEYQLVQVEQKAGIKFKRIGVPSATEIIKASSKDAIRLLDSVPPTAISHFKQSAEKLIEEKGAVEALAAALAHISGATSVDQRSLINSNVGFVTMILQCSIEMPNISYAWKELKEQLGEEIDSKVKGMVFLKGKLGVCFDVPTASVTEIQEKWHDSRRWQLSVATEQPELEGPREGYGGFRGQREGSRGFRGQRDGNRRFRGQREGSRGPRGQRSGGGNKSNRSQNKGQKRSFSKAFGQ
UniProt Q92841: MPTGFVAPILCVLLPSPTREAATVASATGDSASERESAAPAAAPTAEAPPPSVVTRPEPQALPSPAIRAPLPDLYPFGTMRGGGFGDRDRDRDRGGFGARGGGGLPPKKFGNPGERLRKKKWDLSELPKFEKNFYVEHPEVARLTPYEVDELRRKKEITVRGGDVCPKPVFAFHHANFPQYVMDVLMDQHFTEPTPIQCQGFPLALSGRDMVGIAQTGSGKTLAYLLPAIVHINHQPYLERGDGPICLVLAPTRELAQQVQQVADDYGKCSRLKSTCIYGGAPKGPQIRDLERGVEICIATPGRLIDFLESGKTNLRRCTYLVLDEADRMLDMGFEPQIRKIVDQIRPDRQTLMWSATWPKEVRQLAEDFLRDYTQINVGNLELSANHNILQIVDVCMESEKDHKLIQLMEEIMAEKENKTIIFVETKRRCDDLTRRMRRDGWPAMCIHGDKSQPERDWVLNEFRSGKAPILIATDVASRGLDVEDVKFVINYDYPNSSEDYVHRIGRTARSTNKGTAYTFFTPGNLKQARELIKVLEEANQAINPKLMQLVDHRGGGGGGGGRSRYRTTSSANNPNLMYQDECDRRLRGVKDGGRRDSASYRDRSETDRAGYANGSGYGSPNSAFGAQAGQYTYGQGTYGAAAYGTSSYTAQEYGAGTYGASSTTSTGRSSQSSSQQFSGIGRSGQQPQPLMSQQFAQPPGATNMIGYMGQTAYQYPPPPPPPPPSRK
UniProt Q9V426: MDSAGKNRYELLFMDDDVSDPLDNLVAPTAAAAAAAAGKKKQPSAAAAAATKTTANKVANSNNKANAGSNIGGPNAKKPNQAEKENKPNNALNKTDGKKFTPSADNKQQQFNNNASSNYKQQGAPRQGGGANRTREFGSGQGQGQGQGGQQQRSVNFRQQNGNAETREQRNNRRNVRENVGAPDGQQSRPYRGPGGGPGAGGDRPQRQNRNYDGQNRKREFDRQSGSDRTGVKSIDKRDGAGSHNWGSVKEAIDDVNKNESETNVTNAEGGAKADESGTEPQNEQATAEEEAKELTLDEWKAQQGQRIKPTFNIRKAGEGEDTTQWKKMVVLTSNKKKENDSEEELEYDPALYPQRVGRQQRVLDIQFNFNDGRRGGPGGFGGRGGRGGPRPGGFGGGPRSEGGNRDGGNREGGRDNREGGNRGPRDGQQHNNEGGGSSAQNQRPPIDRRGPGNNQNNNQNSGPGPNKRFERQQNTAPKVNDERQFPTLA
UniProt Q9VUH8: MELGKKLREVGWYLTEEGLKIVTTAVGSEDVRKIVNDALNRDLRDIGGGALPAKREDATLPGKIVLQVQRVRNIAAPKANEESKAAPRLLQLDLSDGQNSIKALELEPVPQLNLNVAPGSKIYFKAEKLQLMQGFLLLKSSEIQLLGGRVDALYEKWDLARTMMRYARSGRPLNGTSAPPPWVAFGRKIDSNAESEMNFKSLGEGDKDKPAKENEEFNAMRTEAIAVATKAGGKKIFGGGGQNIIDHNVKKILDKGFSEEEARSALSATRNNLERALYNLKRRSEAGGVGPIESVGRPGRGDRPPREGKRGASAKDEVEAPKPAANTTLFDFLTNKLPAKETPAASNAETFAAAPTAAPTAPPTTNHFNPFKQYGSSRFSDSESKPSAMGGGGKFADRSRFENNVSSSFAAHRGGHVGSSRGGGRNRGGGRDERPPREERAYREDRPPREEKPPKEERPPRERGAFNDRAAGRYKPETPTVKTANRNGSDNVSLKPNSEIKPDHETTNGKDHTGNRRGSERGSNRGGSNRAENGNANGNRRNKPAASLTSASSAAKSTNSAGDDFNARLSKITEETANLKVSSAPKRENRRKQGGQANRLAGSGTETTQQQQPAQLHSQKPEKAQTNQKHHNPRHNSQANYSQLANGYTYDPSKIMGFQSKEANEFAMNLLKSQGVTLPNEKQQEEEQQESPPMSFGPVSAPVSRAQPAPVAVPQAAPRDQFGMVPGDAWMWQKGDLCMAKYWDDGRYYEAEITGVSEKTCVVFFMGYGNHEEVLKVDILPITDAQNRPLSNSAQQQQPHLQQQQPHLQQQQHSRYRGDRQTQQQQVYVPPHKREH

These are yes or no findings as the source states them, for the method shown. Binding seen in cells or lysates may run through a third protein. These calls come from enrichment with a bait or labelling near it, and not all partners need be listed. For part of these data: A no says only that the protein was not detected with the bait. For part of these data: Where a sequence is shown, tags or fusion partners need not be part of it.

For one assay, the target named is T1, FLAG-ZRF1 (human) (UniProt Q99543).
T1 sequence: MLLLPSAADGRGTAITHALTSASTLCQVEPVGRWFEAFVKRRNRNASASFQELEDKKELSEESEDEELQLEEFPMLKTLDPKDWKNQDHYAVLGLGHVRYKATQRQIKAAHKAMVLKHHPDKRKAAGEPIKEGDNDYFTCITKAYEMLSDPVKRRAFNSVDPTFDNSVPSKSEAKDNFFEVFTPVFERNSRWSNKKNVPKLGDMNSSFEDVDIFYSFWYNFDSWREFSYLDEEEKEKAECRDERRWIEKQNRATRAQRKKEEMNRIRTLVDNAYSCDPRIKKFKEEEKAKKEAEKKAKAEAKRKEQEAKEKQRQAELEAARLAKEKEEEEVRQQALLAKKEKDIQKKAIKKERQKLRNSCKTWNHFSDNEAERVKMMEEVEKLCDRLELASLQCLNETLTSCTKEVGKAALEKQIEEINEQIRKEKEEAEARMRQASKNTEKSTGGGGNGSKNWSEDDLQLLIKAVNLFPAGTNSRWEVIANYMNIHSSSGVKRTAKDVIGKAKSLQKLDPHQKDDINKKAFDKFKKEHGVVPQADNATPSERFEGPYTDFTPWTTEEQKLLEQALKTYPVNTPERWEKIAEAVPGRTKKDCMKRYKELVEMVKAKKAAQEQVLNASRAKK
In words: affinity purification with mass spectrometry; HEK293T cells transfected with FLAG-ZRF1 or ZRF1-GFP (controls FLAG-mCherry, mCherry-GFP); IP with α-FLAG or α-GFP agarose/magnetic beads, mild detergent conditions.

Another assay concerns the target T2, ZRF1-GFP (human) (UniProt Q99543).
T2 sequence: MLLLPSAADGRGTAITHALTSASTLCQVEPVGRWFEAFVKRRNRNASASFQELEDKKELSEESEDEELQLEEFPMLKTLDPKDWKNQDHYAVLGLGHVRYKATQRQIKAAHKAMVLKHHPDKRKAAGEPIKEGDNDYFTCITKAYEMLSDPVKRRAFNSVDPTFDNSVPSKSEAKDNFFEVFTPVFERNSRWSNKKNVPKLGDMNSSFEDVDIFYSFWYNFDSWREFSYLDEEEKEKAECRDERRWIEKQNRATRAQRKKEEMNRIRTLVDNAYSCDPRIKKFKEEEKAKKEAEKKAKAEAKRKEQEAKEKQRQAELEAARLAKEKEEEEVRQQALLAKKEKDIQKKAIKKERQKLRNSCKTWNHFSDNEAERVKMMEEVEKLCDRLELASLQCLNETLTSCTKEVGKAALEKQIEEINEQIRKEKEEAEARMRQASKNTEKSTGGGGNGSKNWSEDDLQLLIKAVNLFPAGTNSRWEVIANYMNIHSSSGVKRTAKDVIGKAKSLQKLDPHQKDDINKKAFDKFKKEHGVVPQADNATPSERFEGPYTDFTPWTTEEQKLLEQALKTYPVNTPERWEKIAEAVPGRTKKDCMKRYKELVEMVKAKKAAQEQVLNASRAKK
The description is as above.

A further assay deals with GFP-Zrf1 (Drosophila) (UniProt Q9VP77). In words: affinity purification with mass spectrometry; GFP-Zrf1 immunoprecipitated with GFP-trap beads from transfected S2R+ cells under mild detergent conditions (NP40); GFP alone as control; three biological replicates.

As for “FXR1 (endogenous) (from UniProt P51114 1-621)”, the binding result with FLAG-ZRF1 (human) and with ZRF1-GFP (human) was “binds” in each case.

“TDRD3 (endogenous) (from UniProt Q9H7E2 1-651)”: the binding result with FLAG-ZRF1 (human) and with ZRF1-GFP (human) was “no binding” throughout. “DDX5 (endogenous) (from UniProt P17844 1-614)”: the binding entry with FLAG-ZRF1 (human) and with ZRF1-GFP (human) was “binds” throughout. “FXR2 (endogenous) (from UniProt P51116 1-673)”: the binding result with FLAG-ZRF1 (human) and with ZRF1-GFP (human) was “binds” in each case.

With “DDX21 (endogenous) (from UniProt Q9NR30 1-783)”, the binding result in the assay with FLAG-ZRF1 (human) and with ZRF1-GFP (human) was “binds” throughout. As for “DDX17 (endogenous) (from UniProt Q92841 1-729)”, the binding result with FLAG-ZRF1 (human) and with ZRF1-GFP (human) was “binds” each time. With Vig (endogenous) (from UniProt Q9V426), in the assay with GFP-Zrf1 (Drosophila), the binding result was “binds”.

Consider “Tdrd3 (endogenous) (from UniProt Q9VUH8)”, for which the binding result with GFP-Zrf1 (Drosophila) is listed as “binds”.

B1: AGO2 (endogenous) (protein, UniProt Q9VUQ5 1-1214)
chain: MGKKDKNKKGGQDSAAAPQPQQQQKQQQQRQQQPQQLQQPQQLQQPQQLQQPQQQQQQQPHQQQQQSSRQQPSTSSGGSRASGFQQGGQQQKSQDAEGWTAQKKQGKQQVQGWTKQGQQGGHQQGRQGQDGGYQQRPPGQQQGGHQQGRQGQEGGYQQRPPGQQQGGHQQGRQGQEGGYQQRPSGQQQGGHQQGRQGQEGGYQQRPPGQQQGGHQQGRQGQEGGYQQRPSGQQQGGHQQGRQGQEGGYQQRPPGQQQGGHQQGRQGQEGGYQQRPPGQQQGGHEQGRQGQEGGYQQRPSGQQQGGHQQGRQGQEGGYQQRPSGQQQGGHQQGRQGQEGGYQQRPSGQQQGGHQQGRQGQEGGYQQRPPGQQPNQTQSQGQYQSRGPPQQQQAAPLPLPPQPAGSIKRGTIGKPGQVGINYLDLDLSKMPSVAYHYDVKIMPERPKKFYRQAFEQFRVDQLGGAVLAYDGKASCYSVDKLPLNSQNPEVTVTDRNGRTLRYTIEIKETGDSTIDLKSLTTYMNDRIFDKPMRAMQCVEVVLASPCHNKAIRVGRSFFKMSDPNNRHELDDGYEALVGLYQAFMLGDRPFLNVDISHKSFPISMPMIEYLERFSLKAKINNTTNLDYSRRFLEPFLRGINVVYTPPQSFQSAPRVYRVNGLSRAPASSETFEHDGKKVTIASYFHSRNYPLKFPQLHCLNVGSSIKSILLPIELCSIEEGQALNRKDGATQVANMIKYAATSTNVRKRKIMNLLQYFQHNLDPTISRFGIRIANDFIVVSTRVLSPPQVEYHSKRFTMVKNGSWRMDGMKFLEPKPKAHKCAVLYCDPRSGRKMNYTQLNDFGNLIISQGKAVNISLDSDVTYRPFTDDERSLDTIFADLKRSQHDLAIVIIPQFRISYDTIKQKAELQHGILTQCIKQFTVERKCNNQTIGNILLKINSKLNGINHKIKDDPRLPMMKNTMYIGADVTHPSPDQREIPSVVGVAASHDPYGASYNMQYRLQRGALEEIEDMFSITLEHLRVYKEYRNAYPDHIIYYRDGVSDGQFPKIKNEELRCIKQACDKVGCKPKICCVIVVKRHHTRFFPSGDVTTSNKFNNVDPGTVVDRTIVHPNEMQFFMVSHQAIQGTAKPTRYNVIENTGNLDIDLLQQLTYNLCHMFPRCNRSVSYPAPAYLAHLVAARGRVYLTGTNRFLDLKKEYAKRTIVPEFMKKNPMYFV
Consider B1, for which the binding entry with GFP-Zrf1 (Drosophila) is “binds”.
